In PubChem BioAssay AID504847 (National Center for Advancing Translational Sciences (NCATS), 2011):
“And” between values parts separate entries of the source, which are not always exact repeats. Identical values can stand only once. The whole screen tested about 400,000 compounds, of which about 3,700 (0.93%) were called active. Inconclusive means that the source gave no clear call. Such entries were picked first, then a sample of the others. Calls come from the whole dose curve; as a rule, active = well fitted inhibition curve with a large enough effect; inconclusive = small, poorly fitted or top-dose-only effect, or another doubt; inactive = no such curve, though single readings can be large or run the other way. Potencies of inconclusive entries are doubtful fits and often do not repeat.

Sequences of proteins named here, by UniProt entry; tags and fusion partners are left off. A change or cut given only in a name is not applied to a line headed by its entry.
UniProt P11473: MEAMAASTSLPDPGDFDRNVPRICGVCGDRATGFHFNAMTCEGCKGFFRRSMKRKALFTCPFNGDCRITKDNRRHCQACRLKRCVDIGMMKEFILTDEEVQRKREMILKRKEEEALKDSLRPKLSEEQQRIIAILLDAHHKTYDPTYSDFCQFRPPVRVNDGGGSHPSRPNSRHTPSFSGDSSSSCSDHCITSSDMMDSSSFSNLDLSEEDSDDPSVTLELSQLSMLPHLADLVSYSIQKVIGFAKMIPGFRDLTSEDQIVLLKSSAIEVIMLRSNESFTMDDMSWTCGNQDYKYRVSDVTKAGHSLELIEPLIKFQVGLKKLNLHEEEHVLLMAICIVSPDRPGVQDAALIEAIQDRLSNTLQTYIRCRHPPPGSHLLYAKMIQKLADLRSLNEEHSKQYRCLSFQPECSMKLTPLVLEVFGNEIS

Target: Vitamin D3 receptor (Homo sapiens) (UniProt P11473)
Test: Inhibitors of the vitamin D receptor (VDR): qHTS
Settings: VDR-SRC2-3 peptide fluorescence polarization, 2 h; max response, negative = inhibition: hits give low values
Procedure, shortened: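 Fluorescence polarization assay measuring small-molecule disruption of VDR binding to the coregulator peptide SRC2-3. Compounds were pin-transferred (23 nl) into the reagent mix and incubated 2 h at room temperature before reading.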
% is set by controls: 0 for no effect and ±100 for the full control effect; potency is the fitted concentration of half-maximal effect.

Structure (SMILES)	max response, negative = inhibition	Potency
COc1ccc(/C=N/NC(=O)c2ccn[nH]2)cc1COc1ccc(Cl)cc1	inactive: 9.55%	
COc1ccccc1-c1cncnc1N1CCN(C)CC1		inconclusive: 35.5 µM [inhibitor, partial curve, poor fit]
CCC1Nc2ncnc(N3CCN(c4ccccn4)CC3)c2N(Cc2ccc(Cl)cc2)C1=O (stereo not given)		inconclusive: 1.26 µM [inhibitor, full curve, poor fit]
Cn1c(-c2ccc(C(=O)c3ccccc3)s2)nc2ccccc21		inconclusive: 0.631 µM [inhibitor, full curve, poor fit]
NNC(=O)c1cc2c(s1)CCCCCC2		inconclusive: 79.4 µM [inhibitor, partial curve, poor fit]
Cc1cc(C)nc(SCC(=O)NN=C2CCCC2)n1		inconclusive: 39.8 µM [inhibitor, partial curve, poor fit]
Cc1ccc(SC(=O)c2c(C)noc2-c2cc(C)on2)cc1		inconclusive: 22.4 µM [inhibitor, full curve, poor fit]
O=C(NCc1ccc2c(c1)OCO2)c1cc2ncc(Br)cn2n1	inactive: 13.2%	
Cc1ccc(C(=O)Oc2ccc(C(=O)COC(=O)C3CC(=O)N(Cc4ccco4)C3)cc2)cc1 (stereo not given)	inactive: -16.4%	
CC(=O)Nc1ccc(NC(=S)NC(=O)c2ccc([N+](=O)[O-])cc2)cc1		inconclusive: 89.1 µM [inhibitor, single point]
CCC(=O)N1CCc2cc(S(=O)(=O)NC(Cc3ccccc3)C(=O)NC3CCCCC3)ccc21 (stereo not given)		inconclusive: 89.1 µM [inhibitor, single point]
O=C1CCCC(O)=C1C(C#Cc1ccccc1)C1=C(O)CCCC1=O		inconclusive: 31.6 µM [inhibitor, full curve, poor fit]
Cc1ccnc(NC(c2ccccc2F)c2ccc3cccnc3c2O)c1 (stereo not given)		inconclusive: 12.6 µM [inhibitor, full curve]
COc1ccc(C2=CC(=O)CC(c3ccc(F)cc3)C2)cn1 (stereo not given)		inconclusive: 11.2 µM [inhibitor, partial curve, poor fit]
CC(C)(C)CNc1cc(N2CCCC2)ccc1[N+](=O)[O-]	inactive: 10.6%	
COc1ccc(C(C[N+](=O)[O-])n2nc(C)cc2C)cc1 (stereo not given)		inconclusive: 50.1 µM [inhibitor, partial curve, poor fit]
COc1ccc(S(=O)(=O)NCc2ccncc2)cc1OC	inactive: 4.23%	
O=C(CSc1ccc2nnc(-c3cccnc3)n2n1)NCC1CCCO1 (stereo not given)	inactive: -3.57%	
Cc1ccc(N2C(=O)C3C4C=CC(CNC(=S)Nc5cccc(Cl)c5)(O4)C3C2=O)cc1 (stereo not given)		inconclusive: 63.1 µM [inhibitor, partial curve, poor fit]
CCCc1cc(=O)n2[nH]c(-c3cccc(Br)c3)cc2n1		inconclusive: 89.1 µM [inhibitor, partial curve, poor fit]
COc1ccc(Cl)c(Cn2c(NCCN)nc3c2c(=O)n(C)c(=O)n3C)c1	inactive: -7.39%	
CN(C)c1ccc(NC(=O)COC(=O)c2cc(Cl)ccc2[N+](=O)[O-])cc1		inconclusive: 89.1 µM [inhibitor, partial curve, poor fit]

Structure (SMILES)	max response, negative = inhibition	Potency
Cc1ccc(C)c(N=Cc2cc3c(cc2[N+](=O)[O-])OCO3)c1		active: 79.4 µM
CC(NC(=O)c1ccccc1)c1nc2ccccc2n1Cc1ccc(Cl)cc1 (stereo not given)	inactive: 7.24%	
Cc1c(CCC(=O)O)c(=O)oc2c(C)c3occ(-c4ccc(Cl)cc4)c3cc12		inconclusive: 50.1 µM [inhibitor, partial curve, poor fit]
COCCCn1c(=N)c(C(N)=S)cc2c(=O)n3cccc(C)c3nc21		inconclusive: 100 µM [inhibitor, partial curve, poor fit]
COc1ccc(/C=C/C(=O)c2ccc(C)s2)cc1		active: 31.6 µM
Nn1c(SCc2cn3cc(Cl)ccc3n2)nnc1-c1ccncc1		inconclusive: 89.1 µM [inhibitor, single point]
CCc1ccc(NC(=S)/N=C(\N)Nc2nc(C)c3cc(CC)ccc3n2)cc1		inconclusive: 39.8 µM [inhibitor, partial curve, poor fit]
O=C(NCc1cccc(Cl)c1)c1ccc(N2CC3CC(C2)c2cccc(=O)n2C3)c(NC(=O)c2cccnc2)c1 (stereo not given)	inactive: -2.05%	
CC(OC(=O)c1ccccc1O)C(=O)Nc1ccc(Cl)cn1 (stereo not given)		inconclusive: 70.8 µM [inhibitor, partial curve, poor fit]
CC(C)CN(C(=O)COC(=O)CSc1ccc([N+](=O)[O-])cc1)C1CCS(=O)(=O)C1 (stereo not given)		inconclusive: 89.1 µM [inhibitor, single point]
CCNS(=O)(=O)c1ccc(CCC(=O)NCc2cccnc2)cc1		inconclusive: 89.1 µM [inhibitor, single point]
Cc1ccc(NC(=S)N(CCN(C)C)Cc2cccs2)c(C)c1		inconclusive: 89.1 µM [inhibitor, single point]
Cc1ccc(-n2c(CCC(=O)O)ccc2-c2cccs2)cc1		inconclusive: 89.1 µM [inhibitor, single point]
Cc1ccc(S(=O)(=O)NCCc2cc3ccc(C)c(C)c3[nH]c2=O)cc1	inactive: -21.3%	
Cc1ccc2c(c1)cc(CN(Cc1cccs1)C(=O)c1ccco1)c1nnnn12		inconclusive: 35.5 µM [inhibitor, single point]
Cc1ccc(C(NC(=O)N2CCCC2)C(Cl)Cl)cc1F (stereo not given)		inconclusive: 89.1 µM [inhibitor, single point]
O=C(c1ccccc1)N1CCn2c1nc1ccccc12		inconclusive: 79.4 µM [inhibitor, partial curve, poor fit]
COc1ccccc1CNC(=O)CSC1=NCCS1		inconclusive: 89.1 µM [inhibitor, partial curve, poor fit]
COc1cc(C(=O)NCC(c2cccnc2)N2CCN(c3ccc(F)cc3)CC2)cc(OC)c1OC (stereo not given)	inactive: -5.23% and inactive: -10.4%	
O=C(Oc1ccc(-c2cn3c(n2)SCC3)cc1)c1ccccc1		inconclusive: 89.1 µM [inhibitor, partial curve, poor fit]
Cc1c(CCC(=O)O)c(=O)oc2cc3occ(-c4ccc(Br)cc4)c3cc12		inconclusive: 79.4 µM [inhibitor, partial curve, poor fit]
COc1ccccc1CNC(=O)CC(NS(=O)(=O)c1ccc(C)cc1)c1ccco1 (stereo not given)		inconclusive: 4.47 µM [inhibitor, partial curve, poor fit]

Structure (SMILES)	max response, negative = inhibition	Potency
CCOc1ccc(C(=S)NC2CCCCC2)cc1OC		active: 50.1 µM
Cc1ccc(C2(C)NC(=O)N(CC(=O)Nc3ccc(Cl)c(S(=O)(=O)N4CCCCC4)c3)C2=O)cc1 (stereo not given)	inactive: -16%	
COc1ccc(CN2CCNC(=O)C2CC(=O)NCC2CCOCC2)c(C)c1C (stereo not given)	inactive: -13.1%	
c1ccc(-n2nnc3cnccc32)cc1		inconclusive: 39.8 µM [inhibitor, single point]
CCCCN(C)CCNC(=O)c1cc(-c2cccnc2)nc2ccc(S(=O)(=O)N3CCC(C)CC3)cc12		inconclusive: 39.8 µM [inhibitor, single point]
Cc1ccc(CC2CC(=O)N(Cc3ccco3)C2=O)cc1 (stereo not given)		inconclusive: 89.1 µM [inhibitor, single point]
CCN(C(=O)Cc1c(C(=O)O)n(CC)c2ccccc12)c1cccc(C(F)(F)F)c1		inconclusive: 50.1 µM [inhibitor, partial curve]
Cn1c(=O)[nH]c(=O)c2c1nc(SCCN1CCCCC1)n2CCCc1ccccc1		active: 35.5 µM
O=C(c1cncc(Br)c1)N1CCN(c2ccc([N+](=O)[O-])cc2)CC1		inconclusive: 1 µM [inhibitor, full curve, poor fit]
N#C/C(N=Nc1ccccc1O)=N\Nc1ccccc1O		inconclusive: 56.2 µM [inhibitor, partial curve, poor fit]
O=C(Nc1nncs1)c1cccc(S(=O)(=O)N2CCc3ccccc32)c1		inconclusive: 35.5 µM [inhibitor, single point]
CN(C(=O)COC(=O)CSc1ccc([N+](=O)[O-])cc1)c1ccccc1		active: 89.1 µM
CCN1CCN(C(=O)c2cc3c(=O)n(C)c4ccccc4c3n2C)CC1	inactive: -15.9%	
Cn1cnnc1SCc1ccc(C(=O)N=Nc2c(O)n(Cc3ccc(Cl)cc3)c3ccccc23)cc1	inactive: -1.93%	
O=C(CN1C(=O)COc2ccc(S(=O)(=O)N3CCCCCC3)cc21)NCc1ccc(Cl)cc1	inactive: 17.8%	
CCc1ccc(N=C2NC(=O)CC(C(=O)Nc3ccc(OC)cc3)S2)cc1 (stereo not given)		inconclusive: 89.1 µM [inhibitor, single point]
CC(=O)N1CC(C)Sc2ccc(S(=O)(=O)NCCc3cccc(C)c3)cc21 (stereo not given)		inconclusive: 10 µM [inhibitor, partial curve, poor fit]
Cc1cc(Cl)cc2sc(=S)[nH]c12		inconclusive: 89.1 µM [inhibitor, partial curve, poor fit]
CCOC(=O)c1c(SCCN2CCCC2)n(-c2ccccc2)c(=S)n(-c2ccccc2)c1=O		active: 70.8 µM
CCn1cc(/C=C/C(=O)Nc2ccn(Cc3c(F)c(F)cc(F)c3F)n2)cn1		inconclusive: 56.2 µM [inhibitor, partial curve, poor fit]
COc1ccc(CCNC(=O)CSC(=O)c2ccccc2)cc1OC		inconclusive: 56.2 µM [inhibitor, partial curve, poor fit]
